Experimental data reported in the supplement of paper PMC6331611.
± gives the standard deviation of the averaged measurements. Whole data set: some 1,600 compounds, median “normalized intracellular growth (luminescence, IQM-normalized) in RAW264.7 macrophages” near 1, cut for the lowest 2% near 0.43. Some of the results follow.

Test system: Salmonella enterica serovar Typhimurium SL1344
Assay: normalized intracellular growth (luminescence, IQM-normalized) in RAW264.7 macrophages (fraction of plate interquartile mean); higher = more bacterial growth (less inhibition)
Conditions: 10 µM

Row | SMILES | normalized intracellular growth (time point: T3 (3 h)) | normalized intracellular growth (time point: Tfinal (~6 h))
1 | Cc1cc(CC(=O)O)n(C)c1C(=O)c1ccc(Cl)cc1 | 0.997 ± 0.065 | 0.776 ± 0.078
2 | CC(=O)Nc1ncc([N+](=O)[O-])s1 | 1.11 ± 0.057 | 1.12 ± 0.048
3 | CC12CCC(CC1)C(C)(C)O2 | 1.02 ± 0.024 | 0.96 ± 0.18
4 | CC(C)C[C@@H]1NC(=O)[C@H](CCCN)NC(=O)[C@H](C(C)C)NC(=O)[C@H](Cc2ccc(O)cc2)N[C@@H](CCC(=O)O)C(=O)N[C@@H](CC(N)=O)C(=O)[C@@H](Cc2ccccc2)NC(=O)[C@H](Cc2ccccc2)NC(=O)[C@@H]2CCCN2C(=O)[C@@H](Cc2ccccc2)NC1=O | 0.95 ± 0.055 | 1 ± 0.064
5 | Nc1ccc2cc3ccc(N)cc3nc2c1 | 1.15 ± 0.058 | 1.32 ± 0.085
6 | COc1ccc2cc(C(C)C(=O)O)ccc2c1 (configuration not stated) | 1.04 ± 0.036 | 1.09 ± 0.089
7 | CCC(=O)c1c(O)cc(O)cc1O | 1.02 ± 0.025 | 1.07 ± 0.15
8 | FC(F)(Cl)C(F)(F)Cl | 1.02 ± 0.023 | 0.675 ± 0.21
9 | CC1Cc2ccccc2N1NC(=O)c1ccc(Cl)c(S(N)(=O)=O)c1 (configuration not stated) | 0.977 ± 0.021 | 1.15 ± 0.0069
10 | Nc1ccc(S(=O)(=O)Nc2ccnn2-c2ccccc2)cc1 | 1 ± 0.049 | 1.01 ± 0.062
11 | O=C(NCC(O)CO)c1c(I)c(C(=O)NCC(O)CO)c(I)c(N(CCO)C(=O)CO)c1I (configuration not stated) | 0.955 ± 0.082 | 1.07 ± 0.16
12 | CO/N=C(\C(=O)N[C@@H]1C(=O)N2C(C(=O)O)=C(COC(N)=O)CS[C@H]12)c1ccco1 | 0.994 ± 0.043 | 0.732 ± 0.083
13 | O=C1CN2Cc3c(ccc(Cl)c3Cl)N=C2N1 | 1.05 ± 0.069 | 1.08 ± 0.17
14 | CC(C)NCC(O)COc1ccc(COCCOC(C)C)cc1 (configuration not stated) | 0.946 ± 0.013 | 1.16 ± 0.083
15 | Nc1nc(Cl)nc2c1ncn2[C@@H]1O[C@H](CO)[C@@H](O)[C@@H]1F | 1.01 ± 0.071 | 1.03 ± 0.13
16 | CC(=O)N[C@@H](CC(C)C)C(=O)O | 0.9533 ± 0.0091 | 1.1 ± 0.13
17 | Nc1nc(=O)c2nc(CNc3ccc(C(=O)N[C@@H](CCC(=O)O)C(=O)O)cc3)cnc2[nH]1 | 1.04 ± 0.053 | 0.886 ± 0.083
18 | O=C([O-])[C@H]1/C(=C/CO)O[C@@H]2CC(=O)N21.[Li+] | 1.02 ± 0.099 | 0.812 ± 0.11
19 | CC[C@H]1OC(=O)[C@H](C)[C@@H](O[C@H]2C[C@@](C)(OC)[C@@H](O)[C@H](C)O2)[C@H](C)[C@@H](O[C@@H]2O[C@H](C)C[C@H](N(C)C)[C@H]2O)[C@](C)(O)C[C@@H](C)/C(=N\OCOCCOC)[C@H](C)[C@@H](O)[C@]1(C)O | 1.06 ± 0.03 | 0.825 ± 0.42

Row | SMILES | normalized intracellular growth (time point: T3 (3 h)) | normalized intracellular growth (time point: Tfinal (~6 h))
20 | NCCC[C@H](N)C(=O)O | 0.972 ± 0.048 | 0.966 ± 0.13
21 | NC(=O)N1c2ccccc2C=Cc2ccccc21 | 1.05 ± 0.084 | 1.05 ± 0.092
22 | CN(C)CCN(Cc1cccs1)c1ccccn1 | 1.03 ± 0.066 | 1.01 ± 0.071
23 | CC(=O)OCC(COC(C)=O)OC(C)=O | 0.975 ± 0.09 | 1 ± 0.1
24 | Cc1scc2c1N(C(=O)CN1CCN(C)CC1)c1ccccc1NC2=O | 1.08 ± 0.067 | 0.99 ± 0.22
25 | C=C1c2cccc(O)c2C(=O)C2=C(O)[C@]3(O)C(=O)C(C(N)=O)=C(O)[C@@H](N(C)C)[C@@H]3[C@@H](O)[C@H]12 | 0.979 ± 0.029 | 0.103 ± 0.039
26 | c1ccc(C2CN3CCSC3=N2)cc1 (configuration not stated) | 1.03 ± 0.029 | 0.652 ± 0.033
27 | OC[C@H]1O[C@H]([S-])[C@H](O)[C@@H](O)[C@@H]1O.[Au+] | 0.978 ± 0.019 | 1 ± 0.2
28 | O=C(NCc1ccccc1)OCCO | 1.24 ± 0.071 | 1.33 ± 0.083
29 | Cc1nc2ccccc2n1Cc1ccc(Cl)cc1 | 1.02 ± 0.042 | 0.455 ± 0.14
30 | Cc1cc(=O)oc2cc(O)ccc12 | 1.03 ± 0.08 | 1.03 ± 0.098
31 | CC(COc1ccccc1)N(CCCl)Cc1ccccc1 (configuration not stated) | 0.929 ± 0.017 | 0.92 ± 0.074
32 | Nc1ncn([C@@H]2O[C@H](CO)[C@@H](O)[C@H]2O)c(=O)n1 | 0.951 ± 0.029 | 0.154 ± 0.087
33 | CCCNC(C)C(=O)Nc1ccccc1C (configuration not stated) | 1.04 ± 0.03 | 0.794 ± 0.45
34 | COc1ccc(CN(CCN(C)C)c2ccccn2)cc1 | 1.04 ± 0.026 | 1.01 ± 0.0046
35 | CC(=O)c1ccc(S(=O)(=O)NC(=O)NC2CCCCC2)cc1 | 1.1 ± 0.022 | 1.18 ± 0.15
36 | CCOC(=O)OC(C)OC(=O)[C@@H]1N2C(=O)[C@@H](NC(=O)[C@H](N)c3ccccc3)[C@H]2SC1(C)C (some centres not stated) | 1.03 ± 0.053 | 0.978 ± 0.12
37 | CCOC(=O)[C@H](CCc1ccccc1)N[C@H]1CCc2ccccc2N(CC(=O)O)C1=O | 0.901 ± 0.1 | 0.85 ± 0.18
38 | COC1=C(OC)C(=O)C(CCCCCCCCCCO)=C(C)C1=O | 0.981 ± 0.1 | 1.14 ± 0.2

A few values from the results shown.
Value of OC[C@H]1O[C@H]([S-])[C@H](O)[C@@H](O)[C@@H]1O.[Au+] under normalized intracellular growth (time point: Tfinal (~6 h)): 1 ± 0.2
Value of COc1ccc(CN(CCN(C)C)c2ccccn2)cc1 under normalized intracellular growth (time point: T3 (3 h)): 1.04 ± 0.026

Further structures

Row | SMILES | normalized intracellular growth (time point: T3 (3 h)) | normalized intracellular growth (time point: Tfinal (~6 h))
39 | NCCCC[C@H](N[C@@H](CCc1ccccc1)C(=O)O)C(=O)N1CCC[C@H]1C(=O)O | 1 ± 0.011 | 1.06 ± 0.021
40 | CC(C)(C)NC[C@H](O)COc1nsnc1N1CCOCC1 | 1.17 ± 0.12 | 1.23 ± 0.062
41 | C[C@]12CCC(=O)C=C1CC[C@@H]1[C@@H]2[C@@H](O)C[C@@]2(C)[C@H]1CC[C@]2(O)C(=O)COC(=O)CCC(=O)O | 0.965 ± 0.051 | 0.869 ± 0.058
42 | CO/N=C(\C(=O)N[C@@H]1C(=O)N2C(C(=O)O)=C(CSc3nc(=O)c(O)nn3C)CS[C@H]12)c1csc(N)n1 | 0.891 ± 0.022 | 0.311 ± 0.035
43 | CO[C@@H]1[C@@H](OC(N)=O)[C@@H](O)[C@H](Oc2ccc3c(O)c(NC(=O)c4ccc(O)c(CC=C(C)C)c4)c(=O)oc3c2C)OC1(C)C | 0.98 ± 0.031 | 0.903 ± 0.17
44 | CC(=O)Oc1cccc(O)c1 | 1.06 ± 0.083 | 0.868 ± 0.26
45 | CCN1CCN(C(=O)N[C@@H](C(=O)N[C@@H]2C(=O)N3[C@@H]2SC(C)(C)[C@@H]3C(=O)O)c2ccccc2)C(=O)C1=O | 0.778 ± 0.051 | 0.906 ± 0.12
46 | CN(C)CCC[C@@]1(c2ccc(F)cc2)OCc2cc(C#N)ccc21 | 1 ± 0.0023 | 0.875 ± 0.066
47 | CC1=CC(=O)NS(=O)(=O)O1 | 1.06 ± 0.077 | 1.04 ± 0.089
48 | O=C(CNC(=O)c1ccc(Cl)cc1)NO | 0.973 ± 0.089 | 1.03 ± 0.12
49 | CN1CCCC(n2nc(Cc3ccc(Cl)cc3)c3ccccc3c2=O)CC1 (configuration not stated) | 0.945 ± 0.046 | 1.23 ± 0.032
50 | CN1CCCCC1CCN1c2ccccc2Sc2ccc([S+](C)[O-])cc21 (configuration not stated) | 0.953 ± 0.033 | 1.1 ± 0.085
51 | O=C(O[C@H]1CN2CCC1CC2)N1CCc2ccccc2[C@@H]1c1ccccc1 | 0.955 ± 0.098 | 1.11 ± 0.13
52 | NC(=O)N/N=C/c1ccc([N+](=O)[O-])o1 | 1.2 ± 0.043 | 1.05 ± 0.047
53 | N=C(N)NC(=N)N1CCOCC1 | 0.935 ± 0.033 | 1.11 ± 0.11
54 | Cc1ncc(CSSCc2cnc(C)c(O)c2CO)c(CO)c1O | 0.943 ± 0.057 | 1.06 ± 0.015
55 | CC(=O)Oc1cccc2c1C(=O)c1c(OC(C)=O)cc(C(=O)O)cc1C2=O | 0.967 ± 0.044 | 0.921 ± 0.11
56 | C=C1C[C@H]2[C@@H]3C=C(C)C4=CC(=O)CC[C@]4(C)[C@H]3CC[C@]2(C)[C@@]1(OC(C)=O)C(C)=O | 0.96 ± 0.027 | 0.899 ± 0.057
